PMC10450662
No constants are given. Whether binding was seen depends on the method and setting. For some assays here: Binding seen in cells or lysates may run through a third protein. Some binding calls cover weakened binding; strength is not graded here.

Amino acid sequences for entries named in this document (tags omitted).
UniProt P24391: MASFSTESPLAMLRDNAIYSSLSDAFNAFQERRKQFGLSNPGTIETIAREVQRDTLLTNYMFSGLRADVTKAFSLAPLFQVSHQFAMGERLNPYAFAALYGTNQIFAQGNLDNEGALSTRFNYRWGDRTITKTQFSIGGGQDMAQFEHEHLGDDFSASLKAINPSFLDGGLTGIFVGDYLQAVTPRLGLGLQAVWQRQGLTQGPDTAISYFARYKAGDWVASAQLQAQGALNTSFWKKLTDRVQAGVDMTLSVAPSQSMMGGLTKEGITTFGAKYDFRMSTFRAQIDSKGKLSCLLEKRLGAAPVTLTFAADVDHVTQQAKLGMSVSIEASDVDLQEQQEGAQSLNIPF
UniProt Q07335: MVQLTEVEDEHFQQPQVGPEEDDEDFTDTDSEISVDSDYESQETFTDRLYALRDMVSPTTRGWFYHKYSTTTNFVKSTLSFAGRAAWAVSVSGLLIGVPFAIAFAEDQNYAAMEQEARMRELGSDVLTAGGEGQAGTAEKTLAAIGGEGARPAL
UniProt Q7SG90: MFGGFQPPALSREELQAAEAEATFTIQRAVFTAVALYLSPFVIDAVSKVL

Tests used:
[1] = molecular target: Tom40 of the Neurospora crassa TOM complex (Neurospora crassa) (UniProt P24391); assay: cryo-EM structure; TOM core complex dimer in GDN, co-purified from N. crassa, C2 symmetry, 3.32 Å; 50 mM KPO4 pH 8.0, 50 mM KCl, 1 mM EDTA, 1 mM TCEP, 0.02% GDN; both purified
[2] = molecular target: Tom22 of Neurospora crassa with a hexahistidine tag (Neurospora crassa) (UniProt Q07335); assay: pull-down + SEC; His6-Tom22 held on a nickel-NTA column from outer membrane vesicles of N. crassa GR-107 solubilised in 1% GDN (10 mM MOPS pH 7.0, 50 mM potassium acetate, 50 mM imidazole), eluted with 300 mM imidazole, then Superdex 200 Increase; subunits seen by SDS-PAGE with Coomassie staining

With “Tom5 of the Neurospora crassa TOM complex (from UniProt Q7SG90 1-50)” the binding [1] was “binds” and the binding [2] was “binds”.
